Reference: the supplement of paper PMC4604168 (melanoma cell lines)
The list shows a part of the results. Single values are uncertain, as repeats are few or missing.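 Cells were imaged in 1,536-well plates, and nuclei stained with an antibody against cleaved PARP were counted against all DNA-stained nuclei to give the apoptosis fraction. Screening doses were chosen to leave most cells alive, and resting and induced cleaved-PARP levels differ strongly between cell lines.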

Legend:
Assay in all cases: cleaved PARP positive nuclei fraction relative to DMSO control; melanoma cells; higher = more apoptosis
Conditions in all cases: library dose: low library concentration; 72 h
501Mel = test system: 501Mel
A101D = test system: A101D
A2058 = test system: A2058
A375 = test system: A375
C32 = test system: C32
CBRC008 = test system: CBRC008 (line from a melanoma biopsy)
CBRC014 = test system: CBRC014 (line from a melanoma biopsy)
CBRC016 = test system: CBRC016 (line from a melanoma biopsy)
CBRC017 = test system: CBRC017 (line from a melanoma biopsy)
CBRC034 = test system: CBRC034 (line from a melanoma biopsy)
COLO792 = test system: COLO792
COLO800 = test system: COLO800
COLO829 = test system: COLO829
G361 = test system: G361
IPC-298 = test system: IPC-298
IST-MEL1 = test system: IST-MEL1
LB2518-MEL = test system: LB2518-MEL
LOXIMVI = test system: LOXIMVI
MEL-HO = test system: MEL-HO

Compound | cleaved PARP positive nuclei fraction (501Mel) | cleaved PARP positive nuclei fraction (A101D) | cleaved PARP positive nuclei fraction (A2058) | cleaved PARP positive nuclei fraction (A375) | cleaved PARP positive nuclei fraction (C32) | cleaved PARP positive nuclei fraction (CBRC008) | cleaved PARP positive nuclei fraction (CBRC014) | cleaved PARP positive nuclei fraction (CBRC016) | cleaved PARP positive nuclei fraction (CBRC017) | cleaved PARP positive nuclei fraction (CBRC034) | cleaved PARP positive nuclei fraction (COLO792) | cleaved PARP positive nuclei fraction (COLO800) | cleaved PARP positive nuclei fraction (COLO829) | cleaved PARP positive nuclei fraction (G361) | cleaved PARP positive nuclei fraction (IPC-298) | cleaved PARP positive nuclei fraction (IST-MEL1) | cleaved PARP positive nuclei fraction (LB2518-MEL) | cleaved PARP positive nuclei fraction (LOXIMVI) | cleaved PARP positive nuclei fraction (MEL-HO)
CN1CCN(c2ccc3nc(-c4c(N)c5c(F)cccc5[nH]c4=O)[nH]c3c2)CC1 [Dovitinib] + OCc1c[nH]c2ccccc12 [Indole-3-carbinol] (first compound 0.1 µM, partner dose 0.8 µM) | 150% | 99.2% | 88% | 137% | 119% | 26.4% | 78.5% | 114% | 87.8% | 34.8% | 70.4% | 102% | 100% | 116% | 126% | 126% | 60.8% | 322% | 52.3%
CNC(=O)c1cc(Oc2ccc(NC(=O)Nc3ccc(Cl)c(C(F)(F)F)c3)cc2)ccn1 [sorafenib] + CCCS(=O)(=O)Nc1ccc(F)c(C(=O)c2c[nH]c3ncc(Cl)cc23)c1F [PLX4720] (first compound 0.4 µM, partner dose 0.08 µM) | 79.3% | 90.8% | 186% | 132% | 95.6% | 328% | 77.7% | 88.5% | 104% | 111% | 98.3% | 109% | 98.9% | 98.3% | 100% | 82.1% | 213% | 97.7% | 39.4%
CN1CCN(c2ccc3nc(-c4c(N)c5c(F)cccc5[nH]c4=O)[nH]c3c2)CC1 [Dovitinib] + COCC[n+]1c2c(n(Cc3cnccn3)c1C)C(=O)c1ccccc1C2=O [YM155] (first compound 0.1 µM, partner dose 0.0004 µM) | 87.7% | 294% | 148% | 194% | 71.2% | 91.5% | 87.9% | 44% | 129% | 79.5% | 118% | 176% | 93.6% | 18.9% | 46.1% | 185% | 135% | 102% | 148%
Nc1ncn([C@H]2C[C@H](O)[C@@H](CO)O2)c(=O)n1 [decitabine] + C=CCNC1=C2C[C@@H](C)C[C@H](OC)[C@H](O)[C@@H](C)/C=C(\C)[C@H](OC(N)=O)[C@@H](OC)/C=C\C=C(/C)C(=O)NC(=CC1=O)C2=O [Tanespimycin] (first compound 0.1 µM, partner dose 0.002 µM) | 107% | 64.3% | 44.9% | 208% | 88.2% | 90.6% | 97.4% | 370% | 149% | 140% | 128% | 180% | 135% | 104% | 141% | 77.1% | 95.7% | 36.4% | 82.2%
Cc1cc(Nc2cc(N3CCN(C)CC3)nc(/C=C/c3ccccc3)n2)n[nH]1 + C#Cc1cccc(Nc2ncnc3cc(OCCOC)c(OCCOC)cc23)c1 [erlotinib] (first compound 0.04 µM, partner dose 0.8 µM) | 97.1% | 158% | 284% | 288% | 90.4% | 191% | 91.5% | 140% | 148% | 144% | 123% | 149% | 106% | 77.2% | 126% | 172% | 130% | 110% | 357%
CN1CCN(c2ccc3nc(-c4c(N)c5c(F)cccc5[nH]c4=O)[nH]c3c2)CC1 [Dovitinib] + Nc1cccc2c1CN(C1CCC(=O)NC1=O)C2=O [lenalidomide] (first compound 0.1 µM, partner dose 1 µM) | 234% | 172% | 160% | 210% | 69.2% | 101% | 78.9% | 46% | 111% | 120% | 112% | 113% | 154% | 168% | 43.9% | 119% | 125% | 142% | 103%
CO[C@H]1C[C@@H]2CC[C@@H](C)[C@@](O)(O2)C(=O)C(=O)N2CCCC[C@H]2C(=O)O[C@H]([C@H](C)C[C@@H]2CC[C@@H](OCCO)[C@H](OC)C2)CC(=O)[C@H](C)/C=C(\C)[C@@H](O)[C@@H](OC)C(=O)[C@H](C)C[C@H](C)/C=C/C=C/C=C/1C [everolimus] + CCCS(=O)(=O)Nc1ccc(F)c(C(=O)c2c[nH]c3ncc(Cl)cc23)c1F [PLX4720] (first compound 0.02 µM, partner dose 0.08 µM) | 667% | 118% | 151% | 614% | 89.4% | 245% | 135% | 225% | 126% | 52.9% | 184% | 134% | 142% | 205% | 174% | 323% | 263% | 148% | 40.2%
O=C(O)[C@@H]1[O][Sb](=[O])([O][Sb]2(=[O])[O][C@H]([C@H](O)CO)[C@H](O)[C@H](C(=O)O)[O]2)[O][C@H]([C@H](O)CO)[C@@H]1O (some centres undefined) [stibogluconate] + CS(=O)(=O)CCNCc1ccc(-c2ccc3ncnc(Nc4ccc(OCc5cccc(F)c5)c(Cl)c4)c3c2)o1 [lapatinib] (first compound 2 µM, partner dose 0.8 µM) | 77% | 63.8% | 111% | 119% | 68.5% | 107% | 104% | 28.8% | 90.1% | 110% | 137% | 58.1% | 35.7% | 132% | 44.1% | 114% | 102% | 131% | 157%
CCCS(=O)(=O)Nc1ccc(F)c(C(=O)c2c[nH]c3ncc(Cl)cc23)c1F + C[C@]1(c2nc3c(C(N)=O)cccc3[nH]2)CCCN1 [Veliparib] (first compound 0.08 µM, partner dose 1.4 µM) | 74.3% | 47.6% | 227% | 177% | 94.9% | 109% | 109% | 162% | 120% | 29.6% | 65.2% | 168% | 214% | 143% | 98.6% | 234% | 112% | 83.8% | 68.2%
O=C(O)[C@@H]1[O][Sb](=[O])([O][Sb]2(=[O])[O][C@H]([C@H](O)CO)[C@H](O)[C@H](C(=O)O)[O]2)[O][C@H]([C@H](O)CO)[C@@H]1O (some centres undefined) [stibogluconate] + C=CCNC1=C2C[C@@H](C)C[C@H](OC)[C@H](O)[C@@H](C)/C=C(\C)[C@H](OC(N)=O)[C@@H](OC)/C=C\C=C(/C)C(=O)NC(=CC1=O)C2=O [Tanespimycin] (first compound 2 µM, partner dose 0.002 µM) | 97% | 38.6% | 31.2% | 46.5% | 92.4% | 23.9% | 74.8% | 153% | 89.2% | 73.2% | 44.8% | 97.3% | 109% | 135% | 81.8% | 26.8% | 110% | 81.7% | 89.3%
CNC(=O)c1cc(Oc2ccc(NC(=O)Nc3ccc(Cl)c(C(F)(F)F)c3)cc2)ccn1 [sorafenib] + Clc1ccc(Nc2nnc(Cc3ccncc3)c3ccccc23)cc1 [vatalanib] (first compound 0.4 µM, partner dose 2 µM) | 58.2% | 95.2% | 106% | 106% | 138% | 41.5% | 107% | 140% | 110% | 220% | 99.2% | 107% | 61.1% | 155% | 123% | 70.4% | 22.6% | 55.5% | 200%
C[C@@H](Oc1cc(-c2cnn(C3CCNCC3)c2)cnc1N)c1c(Cl)ccc(F)c1Cl [Crizotinib] + CS(=O)(=O)CCNCc1ccc(-c2ccc3ncnc(Nc4ccc(OCc5cccc(F)c5)c(Cl)c4)c3c2)o1 [lapatinib] (first compound 0.2 µM, partner dose 0.8 µM) | 53.6% | 58.7% | 99.7% | 113% | 76.5% | 163% | 86.4% | 365% | 108% | 69.9% | 111% | 147% | 200% | 75.7% | 126% | 62.7% | 107% | 40.4% | 117%
C[C@@H](Oc1cc(-c2cnn(C3CCNCC3)c2)cnc1N)c1c(Cl)ccc(F)c1Cl [Crizotinib] + CN1CCN(c2ccc3nc(-c4c(N)c5c(F)cccc5[nH]c4=O)[nH]c3c2)CC1 [Dovitinib] (first compound 0.2 µM, partner dose 0.1 µM) | 115% | 139% | 241% | 101% | 81.2% | 161% | 116% | 28.7% | 96.9% | 141% | 74.6% | 90.8% | 137% | 125% | 43.2% | 127% | 139% | 95.3% | 42.1%
O=C(O)c1ccc2c(c1)nc(Nc1cccc(Cl)c1)c1ccncc12 + OCc1c[nH]c2ccccc12 [Indole-3-carbinol] (first compound 0.4 µM, partner dose 0.8 µM) | 103% | 36.1% | 220% | 197% | 167% | 56.5% | 111% | 184% | 182% | 62.1% | 96.7% | 69.9% | 81.4% | 93.4% | 122% | 51.2% | 56.1% | 69.8% | 106%
Nc1nc(F)nc2c1ncn2[C@@H]1O[C@H](CO)[C@@H](O)[C@@H]1O [fludarabine] + Nc1ncn([C@H]2C[C@H](O)[C@@H](CO)O2)c(=O)n1 [decitabine] (first compound 0.2 µM, partner dose 0.1 µM) | 12600% | 101% | 69.4% | 3490% | 74.4% | 154% | 112% | 343% | 103% | 177% | 115% | 41.6% | 92.9% | 75% | 129% | 83.4% | 107% | 51.1% | 73.7%
Cn1c(=O)n(-c2ccc(C(C)(C)C#N)cc2)c2c3cc(-c4cnc5ccccc5c4)ccc3ncc21 + CS(=O)(=O)CCNCc1ccc(-c2ccc3ncnc(Nc4ccc(OCc5cccc(F)c5)c(Cl)c4)c3c2)o1 [lapatinib] (first compound 0.004 µM, partner dose 0.8 µM) | 78.8% | 59.2% | 71.7% | 224% | 92.6% | 108% | 109% | 24.4% | 88.6% | 117% | 228% | 77.8% | 119% | 224% | 44.7% | 133% | 154% | 139% | 120%

A portion from the list above, for reference:
Compound | cleaved PARP positive nuclei fraction (501Mel) | cleaved PARP positive nuclei fraction (A101D) | cleaved PARP positive nuclei fraction (A2058) | cleaved PARP positive nuclei fraction (A375) | cleaved PARP positive nuclei fraction (C32) | cleaved PARP positive nuclei fraction (CBRC008) | cleaved PARP positive nuclei fraction (CBRC014) | cleaved PARP positive nuclei fraction (CBRC016) | cleaved PARP positive nuclei fraction (CBRC017) | cleaved PARP positive nuclei fraction (CBRC034) | cleaved PARP positive nuclei fraction (COLO792) | cleaved PARP positive nuclei fraction (COLO800) | cleaved PARP positive nuclei fraction (COLO829) | cleaved PARP positive nuclei fraction (G361) | cleaved PARP positive nuclei fraction (IPC-298) | cleaved PARP positive nuclei fraction (IST-MEL1) | cleaved PARP positive nuclei fraction (LB2518-MEL) | cleaved PARP positive nuclei fraction (LOXIMVI) | cleaved PARP positive nuclei fraction (MEL-HO)
O=C(O)[C@@H]1[O][Sb](=[O])([O][Sb]2(=[O])[O][C@H]([C@H](O)CO)[C@H](O)[C@H](C(=O)O)[O]2)[O][C@H]([C@H](O)CO)[C@@H]1O (some centres undefined) [stibogluconate] + CS(=O)(=O)CCNCc1ccc(-c2ccc3ncnc(Nc4ccc(OCc5cccc(F)c5)c(Cl)c4)c3c2)o1 [lapatinib] (first compound 2 µM, partner dose 0.8 µM) | 77% | 63.8% | 111% | 119% | 68.5% | 107% | 104% | 28.8% | 90.1% | 110% | 137% | 58.1% | 35.7% | 132% | 44.1% | 114% | 102% | 131% | 157%
CCCS(=O)(=O)Nc1ccc(F)c(C(=O)c2c[nH]c3ncc(Cl)cc23)c1F + C[C@]1(c2nc3c(C(N)=O)cccc3[nH]2)CCCN1 [Veliparib] (first compound 0.08 µM, partner dose 1.4 µM) | 74.3% | 47.6% | 227% | 177% | 94.9% | 109% | 109% | 162% | 120% | 29.6% | 65.2% | 168% | 214% | 143% | 98.6% | 234% | 112% | 83.8% | 68.2%
O=C(O)[C@@H]1[O][Sb](=[O])([O][Sb]2(=[O])[O][C@H]([C@H](O)CO)[C@H](O)[C@H](C(=O)O)[O]2)[O][C@H]([C@H](O)CO)[C@@H]1O (some centres undefined) [stibogluconate] + C=CCNC1=C2C[C@@H](C)C[C@H](OC)[C@H](O)[C@@H](C)/C=C(\C)[C@H](OC(N)=O)[C@@H](OC)/C=C\C=C(/C)C(=O)NC(=CC1=O)C2=O [Tanespimycin] (first compound 2 µM, partner dose 0.002 µM) | 97% | 38.6% | 31.2% | 46.5% | 92.4% | 23.9% | 74.8% | 153% | 89.2% | 73.2% | 44.8% | 97.3% | 109% | 135% | 81.8% | 26.8% | 110% | 81.7% | 89.3%
